This is an account of results in the supplement of paper PMC11732987, “Enantioselective OTUD7B fragment discovery through chemoproteomics screening and high-throughput optimisation” (Communications Chemistry, 2025).

Sequences of proteins named here, by UniProt entry; tags and fusion partners are left off. A change or cut given only in a name is not applied to a line headed by its entry. Residues count along the entry.
UniProt Q8NI60: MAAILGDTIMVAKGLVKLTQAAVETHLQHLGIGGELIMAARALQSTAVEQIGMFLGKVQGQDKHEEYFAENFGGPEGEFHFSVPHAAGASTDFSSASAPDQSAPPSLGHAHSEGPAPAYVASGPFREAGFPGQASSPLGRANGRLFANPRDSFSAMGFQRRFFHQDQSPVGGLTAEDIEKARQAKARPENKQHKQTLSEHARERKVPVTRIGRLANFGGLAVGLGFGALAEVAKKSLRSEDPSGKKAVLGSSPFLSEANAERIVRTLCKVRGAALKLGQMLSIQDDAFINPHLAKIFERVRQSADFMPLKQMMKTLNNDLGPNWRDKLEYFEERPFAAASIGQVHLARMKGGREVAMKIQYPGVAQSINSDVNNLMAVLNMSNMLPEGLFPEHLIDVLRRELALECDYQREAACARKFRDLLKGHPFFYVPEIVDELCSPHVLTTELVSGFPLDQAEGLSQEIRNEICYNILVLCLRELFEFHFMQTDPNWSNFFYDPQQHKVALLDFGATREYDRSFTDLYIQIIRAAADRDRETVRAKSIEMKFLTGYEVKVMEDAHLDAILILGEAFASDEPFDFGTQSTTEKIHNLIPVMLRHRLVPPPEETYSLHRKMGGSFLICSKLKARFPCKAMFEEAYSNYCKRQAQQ
UniProt Q96MW5: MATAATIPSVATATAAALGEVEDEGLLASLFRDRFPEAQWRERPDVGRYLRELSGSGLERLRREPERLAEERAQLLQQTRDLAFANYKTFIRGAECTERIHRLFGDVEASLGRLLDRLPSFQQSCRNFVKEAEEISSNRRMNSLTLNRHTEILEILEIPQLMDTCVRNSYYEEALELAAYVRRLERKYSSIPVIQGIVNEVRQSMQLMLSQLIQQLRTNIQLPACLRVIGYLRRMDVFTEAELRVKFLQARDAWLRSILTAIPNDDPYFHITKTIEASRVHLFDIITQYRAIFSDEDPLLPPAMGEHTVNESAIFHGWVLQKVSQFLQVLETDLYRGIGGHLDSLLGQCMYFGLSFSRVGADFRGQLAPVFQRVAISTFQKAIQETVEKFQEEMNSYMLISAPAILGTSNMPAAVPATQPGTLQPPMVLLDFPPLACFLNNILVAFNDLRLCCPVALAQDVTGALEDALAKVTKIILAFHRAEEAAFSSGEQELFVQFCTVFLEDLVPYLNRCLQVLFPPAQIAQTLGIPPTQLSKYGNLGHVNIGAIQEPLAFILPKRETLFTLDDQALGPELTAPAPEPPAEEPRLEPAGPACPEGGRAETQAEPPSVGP
UniProt Q14008: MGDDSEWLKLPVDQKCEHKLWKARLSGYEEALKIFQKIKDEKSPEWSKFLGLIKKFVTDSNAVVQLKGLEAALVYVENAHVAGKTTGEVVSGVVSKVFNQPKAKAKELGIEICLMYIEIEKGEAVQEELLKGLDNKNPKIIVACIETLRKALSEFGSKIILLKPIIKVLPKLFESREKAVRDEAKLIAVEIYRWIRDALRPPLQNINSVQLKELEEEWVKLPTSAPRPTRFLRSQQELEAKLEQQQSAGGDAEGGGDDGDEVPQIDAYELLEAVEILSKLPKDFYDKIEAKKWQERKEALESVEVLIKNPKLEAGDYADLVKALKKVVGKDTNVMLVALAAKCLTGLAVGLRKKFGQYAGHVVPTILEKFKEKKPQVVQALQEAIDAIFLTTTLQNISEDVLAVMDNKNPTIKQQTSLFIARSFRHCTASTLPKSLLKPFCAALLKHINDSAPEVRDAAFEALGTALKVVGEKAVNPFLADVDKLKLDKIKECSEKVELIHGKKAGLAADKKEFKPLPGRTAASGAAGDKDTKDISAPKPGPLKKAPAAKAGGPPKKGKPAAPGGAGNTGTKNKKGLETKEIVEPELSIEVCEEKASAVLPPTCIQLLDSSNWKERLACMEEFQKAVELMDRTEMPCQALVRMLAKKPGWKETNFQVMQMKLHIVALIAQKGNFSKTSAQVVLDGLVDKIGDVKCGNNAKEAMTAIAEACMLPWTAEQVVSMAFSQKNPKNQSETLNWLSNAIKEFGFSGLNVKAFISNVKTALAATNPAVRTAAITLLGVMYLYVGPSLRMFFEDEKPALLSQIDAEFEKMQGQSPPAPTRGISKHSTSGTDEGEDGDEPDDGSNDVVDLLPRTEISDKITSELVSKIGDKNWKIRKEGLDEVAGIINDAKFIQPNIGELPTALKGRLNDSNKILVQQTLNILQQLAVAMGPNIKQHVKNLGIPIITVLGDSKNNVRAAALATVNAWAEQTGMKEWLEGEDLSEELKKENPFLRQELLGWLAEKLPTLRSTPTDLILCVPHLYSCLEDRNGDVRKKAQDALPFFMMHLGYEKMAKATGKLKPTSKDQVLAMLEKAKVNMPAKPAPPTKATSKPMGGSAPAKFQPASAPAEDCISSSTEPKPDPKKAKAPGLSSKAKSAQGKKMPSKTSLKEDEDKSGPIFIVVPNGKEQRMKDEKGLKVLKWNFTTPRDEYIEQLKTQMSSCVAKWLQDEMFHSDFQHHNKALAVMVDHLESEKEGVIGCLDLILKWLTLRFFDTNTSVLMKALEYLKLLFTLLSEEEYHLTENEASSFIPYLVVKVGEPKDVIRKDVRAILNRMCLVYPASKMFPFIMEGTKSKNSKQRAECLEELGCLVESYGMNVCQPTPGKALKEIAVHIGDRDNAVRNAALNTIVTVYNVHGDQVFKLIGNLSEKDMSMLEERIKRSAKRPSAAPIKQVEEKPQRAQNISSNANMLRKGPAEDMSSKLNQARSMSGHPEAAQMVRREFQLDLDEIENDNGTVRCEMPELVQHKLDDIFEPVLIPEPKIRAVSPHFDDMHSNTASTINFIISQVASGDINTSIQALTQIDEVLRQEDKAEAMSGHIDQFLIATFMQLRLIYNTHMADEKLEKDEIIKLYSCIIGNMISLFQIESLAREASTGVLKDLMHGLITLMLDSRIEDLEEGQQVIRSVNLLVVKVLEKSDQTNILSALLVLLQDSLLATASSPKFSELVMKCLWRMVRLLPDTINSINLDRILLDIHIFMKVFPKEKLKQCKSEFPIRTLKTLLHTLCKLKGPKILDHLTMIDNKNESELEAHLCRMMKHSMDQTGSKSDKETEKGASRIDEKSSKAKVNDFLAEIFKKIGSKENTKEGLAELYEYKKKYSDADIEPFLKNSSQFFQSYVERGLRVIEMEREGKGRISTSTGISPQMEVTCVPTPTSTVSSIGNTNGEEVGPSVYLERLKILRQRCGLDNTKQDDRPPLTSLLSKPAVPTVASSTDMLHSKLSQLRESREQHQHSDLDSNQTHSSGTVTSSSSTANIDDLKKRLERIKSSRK
UniProt O75128, 1014-1034: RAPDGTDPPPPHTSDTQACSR
UniProt Q92828: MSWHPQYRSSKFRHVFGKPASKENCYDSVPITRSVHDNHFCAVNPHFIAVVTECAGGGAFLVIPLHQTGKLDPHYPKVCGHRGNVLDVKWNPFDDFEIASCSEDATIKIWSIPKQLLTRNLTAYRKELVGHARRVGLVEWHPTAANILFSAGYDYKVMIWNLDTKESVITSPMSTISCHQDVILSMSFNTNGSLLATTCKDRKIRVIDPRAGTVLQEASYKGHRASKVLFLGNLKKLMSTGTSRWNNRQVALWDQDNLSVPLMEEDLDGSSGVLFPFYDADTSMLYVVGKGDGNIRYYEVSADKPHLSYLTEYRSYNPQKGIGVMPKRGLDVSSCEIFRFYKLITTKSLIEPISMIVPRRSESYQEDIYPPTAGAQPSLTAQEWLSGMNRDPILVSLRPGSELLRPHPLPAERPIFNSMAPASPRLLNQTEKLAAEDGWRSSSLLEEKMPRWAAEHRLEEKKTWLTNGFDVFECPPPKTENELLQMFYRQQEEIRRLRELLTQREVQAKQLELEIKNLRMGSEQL
UniProt O96017, whole entry, looked up: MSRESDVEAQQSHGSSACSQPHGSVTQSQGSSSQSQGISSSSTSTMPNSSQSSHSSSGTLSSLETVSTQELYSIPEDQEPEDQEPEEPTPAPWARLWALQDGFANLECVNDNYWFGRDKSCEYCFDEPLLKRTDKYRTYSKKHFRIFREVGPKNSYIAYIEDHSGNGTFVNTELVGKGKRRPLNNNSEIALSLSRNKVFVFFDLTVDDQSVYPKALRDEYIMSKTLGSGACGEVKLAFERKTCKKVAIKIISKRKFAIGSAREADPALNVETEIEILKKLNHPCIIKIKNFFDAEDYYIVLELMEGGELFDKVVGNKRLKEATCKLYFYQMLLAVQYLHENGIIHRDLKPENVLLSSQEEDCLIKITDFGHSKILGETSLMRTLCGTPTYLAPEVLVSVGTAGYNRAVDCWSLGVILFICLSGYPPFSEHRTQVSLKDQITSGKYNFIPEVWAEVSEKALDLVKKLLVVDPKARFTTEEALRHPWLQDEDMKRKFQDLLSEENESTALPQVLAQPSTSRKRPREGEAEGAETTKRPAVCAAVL
UniProt Q9P2I0: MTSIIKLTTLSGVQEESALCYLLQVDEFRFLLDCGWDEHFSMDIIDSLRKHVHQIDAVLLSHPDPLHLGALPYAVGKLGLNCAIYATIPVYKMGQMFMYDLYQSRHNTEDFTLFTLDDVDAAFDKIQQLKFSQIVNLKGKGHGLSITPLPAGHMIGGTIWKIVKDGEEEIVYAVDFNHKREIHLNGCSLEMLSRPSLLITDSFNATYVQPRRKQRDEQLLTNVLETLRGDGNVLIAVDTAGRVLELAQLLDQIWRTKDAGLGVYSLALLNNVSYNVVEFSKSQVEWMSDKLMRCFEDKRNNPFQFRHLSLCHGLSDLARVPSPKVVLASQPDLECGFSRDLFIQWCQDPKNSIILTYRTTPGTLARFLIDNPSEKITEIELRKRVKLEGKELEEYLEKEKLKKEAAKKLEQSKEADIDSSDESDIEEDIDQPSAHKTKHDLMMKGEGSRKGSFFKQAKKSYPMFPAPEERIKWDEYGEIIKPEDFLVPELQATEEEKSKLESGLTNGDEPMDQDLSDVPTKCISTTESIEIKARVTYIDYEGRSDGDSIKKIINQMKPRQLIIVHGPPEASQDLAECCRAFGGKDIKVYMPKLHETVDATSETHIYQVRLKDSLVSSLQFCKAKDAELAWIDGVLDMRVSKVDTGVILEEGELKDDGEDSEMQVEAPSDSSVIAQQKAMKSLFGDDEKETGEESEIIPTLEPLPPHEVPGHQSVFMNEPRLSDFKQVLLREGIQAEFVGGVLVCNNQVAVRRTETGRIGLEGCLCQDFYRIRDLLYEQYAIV
UniProt P10909: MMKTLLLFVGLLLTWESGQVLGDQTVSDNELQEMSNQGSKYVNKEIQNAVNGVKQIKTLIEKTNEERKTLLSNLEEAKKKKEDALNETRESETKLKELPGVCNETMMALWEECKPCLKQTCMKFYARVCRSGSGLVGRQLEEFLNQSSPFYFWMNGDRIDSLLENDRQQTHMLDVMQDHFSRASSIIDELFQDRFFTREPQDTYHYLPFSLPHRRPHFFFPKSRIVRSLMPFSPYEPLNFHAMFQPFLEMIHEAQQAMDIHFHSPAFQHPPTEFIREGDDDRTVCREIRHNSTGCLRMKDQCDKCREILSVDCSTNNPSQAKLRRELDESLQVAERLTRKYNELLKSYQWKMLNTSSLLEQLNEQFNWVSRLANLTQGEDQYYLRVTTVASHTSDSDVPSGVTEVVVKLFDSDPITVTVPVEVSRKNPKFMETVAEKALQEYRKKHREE
UniProt Q7Z4G1, whole entry, looked up: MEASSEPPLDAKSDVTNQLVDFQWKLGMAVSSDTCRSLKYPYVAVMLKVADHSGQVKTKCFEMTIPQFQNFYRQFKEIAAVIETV
UniProt Q6P4Q7, 725-746: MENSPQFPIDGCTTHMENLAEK
UniProt Q9UBF2: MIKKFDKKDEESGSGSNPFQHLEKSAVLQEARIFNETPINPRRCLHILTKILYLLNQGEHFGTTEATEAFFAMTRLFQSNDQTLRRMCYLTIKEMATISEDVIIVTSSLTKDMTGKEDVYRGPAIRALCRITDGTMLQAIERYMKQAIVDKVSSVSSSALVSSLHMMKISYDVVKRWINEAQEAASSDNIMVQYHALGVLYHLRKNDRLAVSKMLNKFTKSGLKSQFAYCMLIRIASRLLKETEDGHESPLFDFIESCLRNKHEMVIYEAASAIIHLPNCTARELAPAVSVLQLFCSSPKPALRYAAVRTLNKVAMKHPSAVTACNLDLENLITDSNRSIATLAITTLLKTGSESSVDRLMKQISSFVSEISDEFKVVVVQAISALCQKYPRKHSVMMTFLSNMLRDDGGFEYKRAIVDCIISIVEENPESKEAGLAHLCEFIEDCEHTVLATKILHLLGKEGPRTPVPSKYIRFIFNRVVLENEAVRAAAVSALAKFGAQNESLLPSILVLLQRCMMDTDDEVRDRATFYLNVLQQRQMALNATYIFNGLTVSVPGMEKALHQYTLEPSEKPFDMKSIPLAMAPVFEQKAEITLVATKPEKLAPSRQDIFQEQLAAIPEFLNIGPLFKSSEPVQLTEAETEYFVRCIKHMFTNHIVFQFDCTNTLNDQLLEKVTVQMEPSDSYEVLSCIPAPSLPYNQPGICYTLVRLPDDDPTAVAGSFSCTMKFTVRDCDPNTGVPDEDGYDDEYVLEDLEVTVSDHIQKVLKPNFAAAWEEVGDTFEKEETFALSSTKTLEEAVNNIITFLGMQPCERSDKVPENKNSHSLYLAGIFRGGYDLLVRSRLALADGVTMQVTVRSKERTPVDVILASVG

Compound in assay [1]: ClCC(=O)N[C@@H]1CCCc2ccccc12
The experiment in a line: log2 mean competition ratio of IA-DTB cysteine labelling (DMSO/compound) (log2 ratio); higher = stronger cysteine engagement by compound. As to conditions: treatment time: 4 h, cell line lysate: HEK293T. The method, then:
(§1)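 IA-DTB competitive cysteine chemoproteomics in HEK293T RIPA lysate. Lysates were treated with compound 29 or 30 at 50 or 200 µM for 4 h, then IA-DTB (500 µM, 1 h), trypsin-digested, NeutrAvidin-enriched and analysed by diaPASEF. Competition ratio = intensity DMSO / intensity compound (n=4 treated, n=64 DMSO); binding: mean log2 CR ≥ 1 and p ≤ 0.05 plus QC filters. Target is the cysteine site.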

Compound in assay [2]: ClCC(=O)N[C@H]1CCCc2ccccc12
The description is as above. As to conditions: treatment time: 4 h, cell line lysate: HEK293T. The method, then: as §1

The other results are listed elsewhere or left out. The data scatter; read single values as rough.

Turning to COQ8A C620 (UniProt Q8NI60), the “log2 mean competition ratio” value in assay [1] (50 µM) is 0.327; in assay [1] (200 µM), 0.146; in assay [2] (50 µM), -0.126; in assay [2] (200 µM) it was 0.152.

For COG8 C225 (UniProt Q96MW5), the “log2 mean competition ratio” value was -0.152 in assay [1] (50 µM), -0.197 in assay [1] (200 µM), 6.38e-05 in assay [2] (50 µM) and -0.161 in assay [2] (200 µM).

Turning to CKAP5 C1500 (UniProt Q14008), the “log2 mean competition ratio” value in assay [1] (50 µM) was 0.0415; in assay [1] (200 µM) it was -0.198; in assay [2] (50 µM) it was -0.104; in assay [2] (200 µM) it was -0.288.

COBL C1032 (UniProt O75128): the “log2 mean competition ratio” value in assay [1] (50 µM) is -0.412; in assay [1] (200 µM), 0.319; in assay [2] (50 µM), -0.422; in assay [2] (200 µM), 0.149.

On to CORO2A C25 (UniProt Q92828), for which the “log2 mean competition ratio” value was 0.122 in assay [1] (50 µM), -0.017 in assay [1] (200 µM), 0.286 in assay [2] (50 µM) and -0.0109 in assay [2] (200 µM).

On to COG7 C505 (UniProt P83436), for which the “log2 mean competition ratio” value in assay [1] (50 µM) was -0.0431; in assay [1] (200 µM), -0.153; in assay [2] (50 µM), 0.587; in assay [2] (200 µM), 0.144.

Turning to COG7 C174 (UniProt P83436), the “log2 mean competition ratio” value is 0.426 in assay [1] (50 µM), 1.03 in assay [1] (200 µM), 0.257 in assay [2] (50 µM) and 0.671 in assay [2] (200 µM).

In the case of CHUK C406 (UniProt O15111), the “log2 mean competition ratio” value in assay [1] (50 µM) is 0.421; in assay [1] (200 µM) it was -0.243; in assay [2] (50 µM), 0.163; in assay [2] (200 µM), 0.022.

As to CHEK2 C231 (UniProt O96017), the “log2 mean competition ratio” value was -0.0985 in assay [1] (50 µM), 0.0736 in assay [1] (200 µM), 0.04 in assay [2] (50 µM) and 0.218 in assay [2] (200 µM).

As to CPSF2 C335 (UniProt Q9P2I0), the “log2 mean competition ratio” value in assay [1] (50 µM) is 0.275; in assay [1] (200 µM), -0.0129; in assay [2] (50 µM), 0.103; in assay [2] (200 µM), 0.121.

With CLASP1 C453 (UniProt Q7Z460), the “log2 mean competition ratio” value was 0.511 in assay [1] (50 µM), 0.235 in assay [1] (200 µM), 0.452 in assay [2] (50 µM) and 0.201 in assay [2] (200 µM).

Take COPG1 C516 (UniProt Q9Y678): the “log2 mean competition ratio” value in assay [1] (50 µM) was 0.453; in assay [1] (200 µM), 0.00468; in assay [2] (50 µM), -0.182; in assay [2] (200 µM) it was -0.0467.

Regarding CLTCL1 C617 (UniProt P53675), the “log2 mean competition ratio” value in assay [1] (50 µM) was 0.0957; in assay [1] (200 µM), -0.313; in assay [2] (50 µM), -0.0213; in assay [2] (200 µM), -0.392.

For the target CLASP2 C662 (UniProt O75122), the “log2 mean competition ratio” value is -0.0989 in assay [1] (50 µM), -0.0105 in assay [1] (200 µM), -0.146 in assay [2] (50 µM) and -0.0717 in assay [2] (200 µM).

Consider CHST14 C159 (UniProt Q8NCH0), for which the “log2 mean competition ratio” value was 0.603 in assay [1] (50 µM), 1.26 in assay [1] (200 µM), 0.414 in assay [2] (50 µM) and 0.88 in assay [2] (200 µM).

On to CLASP1 C173 (UniProt Q7Z460), for which the “log2 mean competition ratio” value in assay [1] (50 µM) was 0.465; in assay [1] (200 µM), 0.123; in assay [2] (50 µM) it was -0.291; in assay [2] (200 µM), -0.179.

As for CHST14 C117 (UniProt Q8NCH0), the “log2 mean competition ratio” value in assay [1] (50 µM) is 0.19; in assay [1] (200 µM), 0.092; in assay [2] (50 µM) it was -0.0145; in assay [2] (200 µM) it was -0.0557.

Turning to COIL C239 (UniProt P38432), the “log2 mean competition ratio” value is 0.0725 in assay [1] (50 µM), -0.00717 in assay [1] (200 µM), 0.351 in assay [2] (50 µM) and 0.112 in assay [2] (200 µM).

For CLU C313 (UniProt P10909), the “log2 mean competition ratio” value was -0.333 in assay [1] (50 µM), 0.066 in assay [1] (200 µM), 0.31 in assay [2] (50 µM) and -0.269 in assay [2] (200 µM).

On to COMMD6 C35 (UniProt Q7Z4G1), for which the “log2 mean competition ratio” value in assay [1] (50 µM) is -0.0391; in assay [1] (200 µM) it was 0.21; in assay [2] (50 µM), -0.0866; in assay [2] (200 µM), 0.286.

Regarding CNNM4 C736 (UniProt Q6P4Q7), the “log2 mean competition ratio” value in assay [1] (50 µM) is -0.0617; in assay [1] (200 µM), -0.562; in assay [2] (50 µM), 0.471; in assay [2] (200 µM) it was -0.37.

Consider COPG2 C420 (UniProt Q9UBF2), for which the “log2 mean competition ratio” value in assay [1] (50 µM) is -0.0528; in assay [1] (200 µM), -0.0351; in assay [2] (50 µM) it was -0.329; in assay [2] (200 µM), 0.00418.
